No constants are given. Whether binding was seen depends on the method and setting. Binding seen in cells or lysates may run through a third protein. These calls come from enrichment with a bait or labelling near it, and not all partners need be listed. Where a sequence is shown, tags or fusion partners need not be part of it.
Molecular target: protein methyltransferase PRMT-5 (human, untagged) (human)
Assay: FLAG immunoprecipitation from K562 cells expressing NF-E4-FLAG, mass spectrometry of gel bands

- binding: binds
B1: NF-E4-FLAG (protein, UniProt Q86UQ8 1-179, looked up, not shown: small tags and cut ends)
chain: MPRVVCWHTLKSLNGYKNLSSGAETREGLRSSSPVDLPLRPRKQATAAGQRKLLSLQLLLCACTSVTDLTYWGPAGHGATAPHRSLLAIHLHLVPASSAAMKATGPHNAQTQVNPQGHAPSAEDPTGTWTVSGPCKDHPHPFLSQSNPPTRISSALPLKTDSALEQTPQQLPSLHLSQG

Reference: US20100061989A1
